Results are given in words; binding and its absence hold for the method and conditions named. Some results given as binding are weak or reduced against the parent protein; the word gives no strength. Values belong to the binder of their own block, whether it stands above or below them.
How the values were obtained:
[1] = target: gD-tagged trkC (human trkC-gD) (human) (UniProt Q16288); assay: direct ELISA: coated human trkC-gD (1 µg/ml), MAb 1 µg/ml, HRP conjugate
[2] = target: gD-tagged trkC (human trkC-gD) (human) (UniProt Q16288); assay: direct ELISA on immobilized human trkC-gD, Mab 1 µg/ml (FIG. 3)
[3] = target: gD-tagged trkC (human trkC-gD) (human) (UniProt Q16288); assay: direct ELISA on immobilized human trkC-gD

Chains of the proteins cited; added tags and fusions are not shown. Lines headed by an entry give the natural chain unless they say otherwise; changes in a name come on top.
UniProt Q16288: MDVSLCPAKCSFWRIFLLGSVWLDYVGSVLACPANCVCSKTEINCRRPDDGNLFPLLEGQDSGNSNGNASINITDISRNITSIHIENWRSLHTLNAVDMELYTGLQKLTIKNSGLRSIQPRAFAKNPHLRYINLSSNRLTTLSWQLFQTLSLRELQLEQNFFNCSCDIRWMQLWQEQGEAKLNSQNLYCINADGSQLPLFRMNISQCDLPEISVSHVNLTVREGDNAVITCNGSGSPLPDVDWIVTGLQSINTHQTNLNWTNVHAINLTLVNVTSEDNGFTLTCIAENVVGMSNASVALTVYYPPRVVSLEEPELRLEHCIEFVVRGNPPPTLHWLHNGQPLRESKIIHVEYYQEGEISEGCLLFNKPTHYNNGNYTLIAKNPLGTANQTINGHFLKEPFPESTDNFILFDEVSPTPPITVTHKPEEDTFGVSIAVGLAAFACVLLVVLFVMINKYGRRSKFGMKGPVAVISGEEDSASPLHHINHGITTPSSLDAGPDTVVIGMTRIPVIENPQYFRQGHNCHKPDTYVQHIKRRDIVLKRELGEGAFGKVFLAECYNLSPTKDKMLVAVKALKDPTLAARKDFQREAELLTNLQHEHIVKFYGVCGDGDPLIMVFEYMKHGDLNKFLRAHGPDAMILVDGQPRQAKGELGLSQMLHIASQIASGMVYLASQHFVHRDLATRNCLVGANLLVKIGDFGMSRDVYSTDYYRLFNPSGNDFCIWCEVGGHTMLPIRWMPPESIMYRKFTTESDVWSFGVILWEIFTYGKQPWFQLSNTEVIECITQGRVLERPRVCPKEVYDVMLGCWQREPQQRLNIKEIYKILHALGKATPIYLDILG

- binding [1]: binds
- binding [2]: binds
- binding [3]: binds
B1: anti-trkC agonist monoclonal antibody 2349 (antibody, human IgG4, V domains shown)
VH: QVQLQESGPGLVKPSQTLSLTCTVSGGSISSGYYYWSWIRQHPGKGLEWIGYIYYSGSTYYNPSLKSRLTISVDTSKNQFSLKLSSVTAADTAVYYCARERIAAAGTDYYYNGLAVWGQGTTVTVSS
VL: GIVLTQSPGTLSLSPGERATFSCRASQSGSSTYLAWYQQKPGQAPRLLIYGASSRATGIPDRFSGSGSGTDFTLTISRLEPEDFAVYYCQQYGRSPPITFGQGTRLEIKR

- binding [1]: binds
- binding [2]: binds
- binding [3]: binds
B2: anti-trkC agonist monoclonal antibody 2253 (antibody, mouse IgG1, V domains shown)
VH: QVQLQQSGAELMQPGASVKISCKSTGYTFSNFWIEWVKQRPGHGLEWIGEILPGSDNTNYNEKFKGKATFTADTSSNTAYMQLSSLTSEDSAVYYCARKNRNYYGNYVVWGAGTTLTVSS
VL: QIVLTQSPAIMSASPGEKVTITCSASSSVSYMYWFQQKPGTSPKLWIYSTSNLASGVPARFSGSGSGTSYSLTISRMEAEDAATYYCQQRSSYPLTFGAGTKLELKR
